# Article PMC7862700
# Protein sequences, listed by entry. Tags and fused reporters are not part of them. Lines headed by an entry give the natural chain unless they say otherwise; changes in a name come on top.
# UniProt Q9Y603: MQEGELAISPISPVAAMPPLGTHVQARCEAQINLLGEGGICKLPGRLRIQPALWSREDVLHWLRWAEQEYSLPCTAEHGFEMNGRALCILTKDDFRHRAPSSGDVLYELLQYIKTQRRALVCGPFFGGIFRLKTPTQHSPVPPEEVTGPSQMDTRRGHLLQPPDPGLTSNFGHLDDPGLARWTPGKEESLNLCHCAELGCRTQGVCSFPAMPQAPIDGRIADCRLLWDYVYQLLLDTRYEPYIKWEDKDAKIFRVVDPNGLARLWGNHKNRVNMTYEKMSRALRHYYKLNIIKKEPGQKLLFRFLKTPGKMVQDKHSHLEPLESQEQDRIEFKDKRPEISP
# UniProt P41212: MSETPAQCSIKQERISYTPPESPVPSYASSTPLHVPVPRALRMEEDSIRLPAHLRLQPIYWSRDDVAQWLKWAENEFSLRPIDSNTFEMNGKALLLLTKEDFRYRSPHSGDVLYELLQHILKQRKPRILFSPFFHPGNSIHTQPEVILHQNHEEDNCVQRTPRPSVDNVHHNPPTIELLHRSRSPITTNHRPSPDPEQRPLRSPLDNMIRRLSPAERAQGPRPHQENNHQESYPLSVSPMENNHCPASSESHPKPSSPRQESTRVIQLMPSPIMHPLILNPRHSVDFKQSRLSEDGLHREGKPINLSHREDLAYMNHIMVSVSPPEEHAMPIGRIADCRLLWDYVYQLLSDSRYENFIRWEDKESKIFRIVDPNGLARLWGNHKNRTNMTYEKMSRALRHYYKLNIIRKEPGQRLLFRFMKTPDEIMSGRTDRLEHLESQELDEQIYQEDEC
# The list shows a part of the results, in another mix than the full data. At the low end of the ranking the order means little.
# Columns and labels:
# Test in all cases: DAPPL (digital affinity profiling via proximity ligation, sequencing)
# Details in all cases: 10 mM Tris-HCl pH 7.5, 50 mM NaCl, 1 mM DTT, 4% glycerol, room temperature, 30 min; GST-TFs on glutathione beads, 16-mer random dsDNA library, 0.1% …; high values mean tight binding; double strand, one strand shown; scale: fold enrichment (6-mer frequency, TF over GST control)
# [1] = molecular target: T1, ELF3 (UniProt P78545)
# T1 sequence: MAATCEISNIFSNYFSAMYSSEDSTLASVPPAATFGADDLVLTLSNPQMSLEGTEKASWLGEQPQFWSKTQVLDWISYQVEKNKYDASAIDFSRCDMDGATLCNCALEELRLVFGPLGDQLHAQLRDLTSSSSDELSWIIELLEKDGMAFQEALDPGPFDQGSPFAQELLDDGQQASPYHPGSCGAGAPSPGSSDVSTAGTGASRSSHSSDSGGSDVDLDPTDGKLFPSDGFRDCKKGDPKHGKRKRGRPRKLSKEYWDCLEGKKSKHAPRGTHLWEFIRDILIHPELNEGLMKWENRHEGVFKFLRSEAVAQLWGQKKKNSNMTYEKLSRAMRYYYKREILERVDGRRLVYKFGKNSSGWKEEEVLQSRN
# [2] = molecular target: ETV7 (UniProt Q9Y603)
# [3] = molecular target: ETV6 (UniProt P41212)
Sequence,binding signal [1],binding signal [2],binding signal [3]
GTAAAG,0.894,0.905,0.898
TGAGTT,0.415,0.489,0.426
AGACGT,0.535,0.54,0.478
CGTGTT,0.815,0.852,0.78
CAGGGG,0.608,0.631,0.576
GAAGAC,0.925,0.928,0.879
ACGGCG,0.639,0.853,0.849
ACGTGC,0.635,0.691,0.648
CACAGG,0.945,0.977,0.882
GCAGTA,0.954,0.851,0.92
CGGTAG,0.857,0.763,0.725
GTCCGT,0.498,0.47,0.509
CGGCGT,0.868,0.841,0.936
GTCGCA,0.744,0.673,0.788
CGCGTG,0.699,0.809,0.644
ACGGGA,0.501,0.559,0.514
GGACTG,0.773,0.715,0.67
GGTTGG,0.664,0.756,0.782
GAACGT,0.434,0.463,0.407
CAGGTT,0.741,0.718,0.667

# Taken from the entries so far for reference:
Sequence,binding signal [1],binding signal [2],binding signal [3]
AGACGT,0.535,0.54,0.478
CGTGTT,0.815,0.852,0.78
CAGGGG,0.608,0.631,0.576
GAAGAC,0.925,0.928,0.879

# Remaining list, next part

Sequence,binding signal [1],binding signal [2],binding signal [3]
CATAGG,0.879,0.781,0.682
GTGCAA,1.07,0.969,0.915
GTGGGT,0.542,0.501,0.492
AAGACG,0.786,0.826,0.743
GTCTGC,0.829,0.871,0.817
ATGAGT,0.666,0.773,0.733
GAGGAC,0.566,0.589,0.602
TAGGAG,0.411,0.434,0.4
ACGGAG,0.328,0.393,0.356
TGGCGG,0.724,0.694,0.79
TCGTGA,0.394,0.338,0.309
AAGCGT,0.908,0.927,0.863
GGTGAA,0.798,0.83,0.727
GTGACA,0.847,0.744,0.867
AGGACT,0.879,0.931,0.883
GACACA,0.899,0.934,0.896
AGCGTG,0.426,0.394,0.354
GTGCGG,0.785,0.632,0.706
TGTCGG,0.35,0.369,0.314
AAGGTG,0.967,0.907,0.891

Sequence,binding signal [1],binding signal [2],binding signal [3]
GAACCG,0.741,0.693,0.711
GGGAAC,0.697,0.682,0.698
GCGCTG,0.77,0.821,0.766
TGAGGT,0.625,0.64,0.564
GCTGTG,0.778,0.734,0.691
GTGTGA,0.622,0.596,0.531
TGGGAG,0.483,0.509,0.462
GTGATT,0.687,0.738,0.747
GGGAGG,0.278,0.389,0.334
GATCGT,0.403,0.428,0.453
AGTCTA,0.741,0.741,0.718
CGCGGA,1.07,0.904,0.999
AGAGGT,0.958,0.896,0.772
GTCAAC,0.917,0.848,0.823
GGGATG,0.954,0.941,0.9
TCGTGG,0.712,0.833,0.693
GGCCGG,0.673,0.601,0.587
TGGGGA,0.867,0.757,0.85
ATCGTA,0.872,0.877,0.907
GAGACA,0.413,0.469,0.385
